For at least one entry, the source does not settle the construct or the ends of the probe. For some assays here: Results from cells or extracts need not show a direct contact.
Assays:
[1] = biological target: cytochrome c (endogenous) (UniProt P99999); experiment: pull-down; settings: protein in cells, protein details: HeLa cells, formaldehyde cross-linked
[2] = tested on: cytochrome c (recombinant, EMSA); experiment: EMSA; settings: 0.5-12.5 uM protein, 20 mM KCl, 2.5 mM MgCl2, 30 C, purified recombinant protein, label: 32P (EMSA)

Amino acid sequences for entries named in this document (tags omitted). Residues count along the entry.
UniProt P99999, 2-105: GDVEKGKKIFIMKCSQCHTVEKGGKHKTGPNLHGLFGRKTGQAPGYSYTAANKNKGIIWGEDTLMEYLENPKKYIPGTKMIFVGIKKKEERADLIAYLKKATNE

Does “GACCUCGUGGCGCAACGGUAGCGCGUCUGACUCCAGAUCAGAAGGUUGCGUGUUCAAAUCACGUCGGGGUCA [cytosolic tRNATrp]” bind ([1]; lesser extent than mitochondrial tRNAs, printed probe identical to U1 probe)?
Result: binds

Does “UCCUUGUUACUAUAGUGGUGAGUAUCUCUGCCUGUCAUGCGUGAGAGAGGGGGUCGAUUCCCCGACGGGGAG [cytosolic tRNAAsp]” bind ([1]; lesser extent than mitochondrial tRNAs)?
Result: binds

Does “AGUAAGGUCAGCUAAAUAAGCUAUCGGGCCCAUACCCCGAAAAUGUUGGUUAUACCCUUCCCGUACUA [mitochondrial tRNAMet]” bind [1]?
Result: binds

Does “AAGGGCUUAGCUUAAUUAAAGUGGCUGAUUUGCGUUCAGUUGAUGCAGAGUGGGGUUUUGCAGUCCUUA [mitochondrial tRNAAla]” bind [1]?
Result: binds

Does “GGUUCCAUGGUGUAAUGGUAAGCACUCUGGACUCUGAAUCCAGCCAUCUGAGUUCGAGUCUCUGUGGAACCU [cytosolic tRNAGln(CTG)]” bind [2]?
Result: binds

Does “GGUUCCAUGGUGUAAUGGUAAGCACUCUGGACUCUGAAUCCAGCCAUCUGAGUUCGAGUCUCUGUGGAACCU [cytosolic tRNAGln(CTG)]” bind ([1]; lesser extent than mitochondrial tRNAs, label: 32P (EMSA))?
Result: binds

Does “GUUUAUGUAGCUUACCUCCUCAAAGCAAUACACUGAAAAUGUUUAGACGGGCUCACAUCACCCCAUAAACA [mitochondrial tRNAPhe]” bind ([2]; salmon sperm DNA, 0.5 M urea)?
Result: binds

Does “GUUUAUGUAGCUUACCUCCUCAAAGCAAUACACUGAAAAUGUUUAGACGGGCUCACAUCACCCCAUAAACA [mitochondrial tRNAPhe]” bind ([1]; label: 32P (EMSA))?
Result: binds

Source: patent publication US20120252718
